Record: PubChem BioAssay AID1259329 (Drosophila RNAi Screening Center, 2017)

Screen: 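Vehicle-only control for knock-down screens on manganese or zinc toxicity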
Cells: Drosophila S2R+ cells
Reagent: long dsRNA against Drosophila genes
Time to read-out: 5 days (4 days knock-down, then 1 day after water)
Treatment: water added as vehicle control, no metal, one day before read-out
Measured: 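After 4 days of knock-down, water was added with no metal, and total ATP was read by luciferase light a day later on two plate copies, as mean z-score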
Reading the numbers: mean ATP z-score: higher = more total ATP, likely more viable cells
Active means: 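Active means the absolute value of the z-score is over 1.5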
Shown is a random part of 418 deposited reagents. Of all reagents, 20 (4.8%) were called active. 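All active calls have high ATP; no reagent fell below -1.5.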 Reagent sequences are not shown. Not given: the amount of reagent, the dose of the treatment.

{"target": "rb (ruby)", "DRSC id": "DRSC18826", "mean ATP z-score": 0.852, "activity call": "inactive"}
{"target": "rb (ruby)", "DRSC id": "DRSC27940", "mean ATP z-score": -0.0167, "activity call": "inactive"}
{"target": "PMP34 (Peroxisomal Membrane Protein 34)", "DRSC id": "DRSC21939", "mean ATP z-score": 0.136, "activity call": "inactive"}
{"target": "PMP34 (Peroxisomal Membrane Protein 34)", "DRSC id": "DRSC39444", "mean ATP z-score": 0.0375, "activity call": "inactive"}
{"target": "Pex19 (Peroxin 19)", "DRSC id": "DRSC02839", "mean ATP z-score": -0.769, "activity call": "inactive"}
{"target": "Vps45 (Vacuolar protein sorting 45)", "DRSC id": "DRSC16398", "mean ATP z-score": 0.959, "activity call": "inactive"}
{"target": "Vps45 (Vacuolar protein sorting 45)", "DRSC id": "DRSC34819", "mean ATP z-score": -0.514, "activity call": "inactive"}
{"target": "Vps45 (Vacuolar protein sorting 45)", "DRSC id": "DRSC37502", "mean ATP z-score": 0.467, "activity call": "inactive"}
{"target": "CG31928", "DRSC id": "DRSC00293", "mean ATP z-score": 0.0371, "activity call": "inactive"}
{"target": "Pex12 (Peroxin 12)", "DRSC id": "DRSC00622", "mean ATP z-score": 0.967, "activity call": "inactive"}
{"target": "Pex12 (Peroxin 12)", "DRSC id": "DRSC27149", "mean ATP z-score": 0.0271, "activity call": "inactive"}
{"target": "CG14767", "DRSC id": "DRSC06500", "mean ATP z-score": 0.946, "activity call": "inactive"}
{"target": "CG14767", "DRSC id": "DRSC28418", "mean ATP z-score": -0.357, "activity call": "inactive"}
{"target": "Vha100-1 (Vacuolar H[+] ATPase 100kD subunit 1)", "DRSC id": "DRSC26617", "mean ATP z-score": 1.04, "activity call": "inactive"}
{"target": "Vha100-1 (Vacuolar H[+] ATPase 100kD subunit 1)", "DRSC id": "DRSC38989", "mean ATP z-score": -0.201, "activity call": "inactive"}
{"target": "Vha100-1 (Vacuolar H[+] ATPase 100kD subunit 1)", "DRSC id": "DRSC39862", "mean ATP z-score": -0.544, "activity call": "inactive"}
{"target": "CG7402", "DRSC id": "DRSC10839", "mean ATP z-score": -0.215, "activity call": "inactive"}
{"target": "Ppt2 (Palmitoyl-protein Thioesterase 2)", "DRSC id": "DRSC02786", "mean ATP z-score": 0.58, "activity call": "inactive"}
{"target": "Ppt2 (Palmitoyl-protein Thioesterase 2)", "DRSC id": "DRSC26027", "mean ATP z-score": -0.363, "activity call": "inactive"}
{"target": "Ppt2 (Palmitoyl-protein Thioesterase 2)", "DRSC id": "DRSC41066", "mean ATP z-score": -0.625, "activity call": "inactive"}
{"target": "Pex16 (Peroxin 16)", "DRSC id": "DRSC11750", "mean ATP z-score": -0.103, "activity call": "inactive"}
{"target": "CG12672", "DRSC id": "DRSC24282", "mean ATP z-score": 0.374, "activity call": "inactive"}
{"target": "Hgsnat (Heparan-alpha-glucosaminide N-acetyltransferase)", "DRSC id": "DRSC18405", "mean ATP z-score": -0.844, "activity call": "inactive"}
{"target": "Hgsnat (Heparan-alpha-glucosaminide N-acetyltransferase)", "DRSC id": "DRSC24716", "mean ATP z-score": -0.155, "activity call": "inactive"}
{"target": "Hgsnat (Heparan-alpha-glucosaminide N-acetyltransferase)", "DRSC id": "DRSC37969", "mean ATP z-score": 0.356, "activity call": "inactive"}
{"target": "Ctr1A (Copper transporter 1A)", "DRSC id": "DRSC18336", "mean ATP z-score": 0.373, "activity call": "inactive"}
{"target": "Ctr1A (Copper transporter 1A)", "DRSC id": "DRSC40310", "mean ATP z-score": 1.09, "activity call": "inactive"}
{"target": "Ctr1A (Copper transporter 1A)", "DRSC id": "DRSC40902", "mean ATP z-score": -0.00957, "activity call": "inactive"}
{"target": "mnd (minidiscs)", "DRSC id": "DRSC11370", "mean ATP z-score": -0.611, "activity call": "inactive"}
{"target": "mnd (minidiscs)", "DRSC id": "DRSC39608", "mean ATP z-score": -0.0377, "activity call": "inactive"}
{"target": "Vha14-2 (Vacuolar H[+] ATPase 14kD subunit 2)", "DRSC id": "DRSC12145", "mean ATP z-score": 0.913, "activity call": "inactive"}
{"target": "Pex14 (Peroxin 14)", "DRSC id": "DRSC11754", "mean ATP z-score": -0.724, "activity call": "inactive"}
{"target": "Pex14 (Peroxin 14)", "DRSC id": "DRSC28339", "mean ATP z-score": 0.352, "activity call": "inactive"}
{"target": "betaGlu (beta glucuronidase)", "DRSC id": "DRSC24889", "mean ATP z-score": 0.284, "activity call": "inactive"}
{"target": "betaGlu (beta glucuronidase)", "DRSC id": "DRSC39080", "mean ATP z-score": 1.47, "activity call": "inactive"}
{"target": "betaGlu (beta glucuronidase)", "DRSC id": "DRSC41080", "mean ATP z-score": -1.31, "activity call": "inactive"}
{"target": "AP-1mu (Adaptor Protein complex 1, mu subunit)", "DRSC id": "DRSC14089", "mean ATP z-score": -0.0179, "activity call": "inactive"}
{"target": "AP-1mu (Adaptor Protein complex 1, mu subunit)", "DRSC id": "DRSC25744", "mean ATP z-score": -0.552, "activity call": "inactive"}
{"target": "Acox3 (Acyl-CoA oxidase 3)", "DRSC id": "DRSC03251", "mean ATP z-score": 1.31, "activity call": "inactive"}
{"target": "Acox3 (Acyl-CoA oxidase 3)", "DRSC id": "DRSC23799", "mean ATP z-score": 1.11, "activity call": "inactive"}
{"target": "CG15533", "DRSC id": "DRSC15069", "mean ATP z-score": -0.605, "activity call": "inactive"}
{"target": "CG15533", "DRSC id": "DRSC30031", "mean ATP z-score": 1.14, "activity call": "inactive"}
{"target": "beta-Man (beta-Mannosidase)", "DRSC id": "DRSC12208", "mean ATP z-score": 1.08, "activity call": "inactive"}
{"target": "beta-Man (beta-Mannosidase)", "DRSC id": "DRSC12209", "mean ATP z-score": -0.149, "activity call": "inactive"}
{"target": "Pex11ab (Peroxin 11a/b)", "DRSC id": "DRSC07145", "mean ATP z-score": 0.248, "activity call": "inactive"}
{"target": "CG14777", "DRSC id": "DRSC18563", "mean ATP z-score": 1.77, "activity call": "active"}
{"target": "CG14777", "DRSC id": "DRSC40040", "mean ATP z-score": -0.767, "activity call": "inactive"}

Targets listed so far whose target name begins with A or a (4):
{"target": "AP-1mu (Adaptor Protein complex 1, mu subunit)", "DRSC id": "DRSC14089", "mean ATP z-score": -0.0179, "activity call": "inactive"}
{"target": "AP-1mu (Adaptor Protein complex 1, mu subunit)", "DRSC id": "DRSC25744", "mean ATP z-score": -0.552, "activity call": "inactive"}
{"target": "Acox3 (Acyl-CoA oxidase 3)", "DRSC id": "DRSC03251", "mean ATP z-score": 1.31, "activity call": "inactive"}
{"target": "Acox3 (Acyl-CoA oxidase 3)", "DRSC id": "DRSC23799", "mean ATP z-score": 1.11, "activity call": "inactive"}
